Assay results reported in article PMC11843629 (Journal of Enzyme Inhibition and Medicinal Chemistry, 2025).
Some peptides are written in HELM: one residue between dots, names in brackets for other building blocks, links after the first $.

Test: general procedure: hybrid (solid and solution phase) peptide synthesis; HATU/DIPEA
Conditions: for final LC-MS purity: whole synthesis, UPLC-MS

| Substance | step yield (late stage modification step) [%] | final LC-MS purity (run 1) [%] | final LC-MS purity (run 2) [%] | step yield (coupling step) [%] | final LC-MS purity [%] |
| --- | --- | --- | --- | --- | --- |
| PEPTIDE1{[desaminoArg].Q.[hPhe].R.[Kbt]}$$$$V2.0 | 56 | 98.21 | 98.2 | – | – |
| PEPTIDE1{[desaminoArg].Q.F.R.[Kbt]}$$$$V2.0 | 38 | – | – | 100 | 98.11 |
| PEPTIDE1{[desaminoArg].Q.[hPhe].[Arg(OH)bt]}$$$$V2.0 | – | – | – | – | 99.5 |
